Data source: PubChem BioAssay AID504791 (Drosophila RNAi Screening Center, 2011)

Assay: 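Genes of the fly required for silencing by miRNA, siRNA or endo-siRNA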 (primary screen)
Cell system: Drosophila S2-derived reporter cells
Reagents: long dsRNA against Drosophila genes, about 150-250 ng dsRNA per well (siRNA assay); about 80-120 ng (miRNA assay)
Timing: about 5 days (siRNA assay); about 4 days (miRNA assay)
Conditions: copper sulfate induction of reporters: 25 µM (siRNA assay); 200 mM stated (miRNA assay), 1-2 days before reading
Measured: 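Dual luciferase assay: Renilla to firefly signal ratio in each well, scaled to the mean ratio of its plate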
Units: stable assay Renilla, run 1 in luminescence; stable assay firefly, run 1 in luminescence
Hit rule: 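a well was a first-pass pick when its plate-scaled ratio rose above 1.5 (siRNA assay) or 1.6 (miRNA assay), or dropped below 0.6; a gene counted only if two separate dsRNAs agreed on retest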
The screen tested about 23,000 reagents; shown is an unselected part of those that have a named target and a result. In the full data, 199 (0.86%) got an active call. 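Plate-scaled ratios behind the calls are not deposited; printed light signals are raw; many rows marked increased or decreased are still called inactive.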 Entries without a mark were called inactive. The numbers tell different reagents against one gene apart. A plus sign joins genes that one reagent is predicted to hit. Not stated in the record: the direction of the score.

CG10761 showed stable assay Renilla, run 1 = 6123; stable assay firefly, run 1 = 2.94e5.
After knock-down of RfC4, the screen gave stable assay Renilla, run 1 = 7775; stable assay firefly, run 1 = 3.09e5.
Silencing of Tim9a resulted in: stable assay Renilla, run 1 = 3691; stable assay firefly, run 1 = 2.87e5.
With knock-down of CG13901, the screen gave stable assay Renilla, run 1 = 4848; stable assay firefly, run 1 = 3.41e5.
With knock-down of snsl, the record shows stable assay Renilla, run 1 = 7535; stable assay firefly, run 1 = 3.65e5.
Against Mgat4a #1, the entry reads stable assay Renilla, run 1 = 3667; stable assay firefly, run 1 = 2.92e5.
With knock-down of Mgat4a #2, the screen gave stable assay Renilla, run 1 = 7583; stable assay firefly, run 1 = 3.67e5.
Piezo gave stable assay Renilla, run 1 = 3.14e5; stable assay firefly, run 1 = 3.91e5.
Against Ocrl, the entry reads stable assay Renilla, run 1 = 6559; stable assay firefly, run 1 = 3.49e5.
hll gave stable assay Renilla, run 1 = 8468; stable assay firefly, run 1 = 1.83e6.
After knock-down of CG3437, the record shows stable assay Renilla, run 1 = 5739; stable assay firefly, run 1 = 3.15e5.
Xport-A + Xport-B gave stable assay Renilla, run 1 = 8695; stable assay firefly, run 1 = 3.33e5.
For Su(z)12, the values are stable assay Renilla, run 1 = 7180; stable assay firefly, run 1 = 4.26e5.
CG9550 gave stable assay Renilla, run 1 = 7556; stable assay firefly, run 1 = 6.12e5.
Against CG42258 #1, the entry reads stable assay Renilla, run 1 = 5500; stable assay firefly, run 1 = 6.82e5.
CG42258 #2 scored stable assay Renilla, run 1 = 4231; stable assay firefly, run 1 = 3.98e5.
CG42258 #3 scored stable assay Renilla, run 1 = 4664; stable assay firefly, run 1 = 4.74e5.
CG33255 (retired record) + hpRNA:CR32205 #1 showed stable assay Renilla, run 1 = 6388; stable assay firefly, run 1 = 5.04e5.
Silencing of CG33255 (retired record) + hpRNA:CR32205 #2 came out at: stable assay Renilla, run 1 = 5971; stable assay firefly, run 1 = 4.65e5.
With knock-down of CG17121, the record shows stable assay Renilla, run 1 = 6792; stable assay firefly, run 1 = 2.87e5.
CG6638 showed stable assay Renilla, run 1 = 6556; stable assay firefly, run 1 = 4.39e5.
ea gave stable assay Renilla, run 1 = 6971; stable assay firefly, run 1 = 3.38e5.
With knock-down of CG4681 the results were stable assay Renilla, run 1 = 5962; stable assay firefly, run 1 = 3.09e5.
After knock-down of Agpat4, the record shows stable assay Renilla, run 1 = 8125; stable assay firefly, run 1 = 4.57e5.
Against CG13230 #1, the values are miRNA reporter change reporter ratio raised past the hit cutoff; stable assay Renilla, run 1 = 6932; stable assay firefly, run 1 = 4.44e5.
Against CG13230 #2, the values are miRNA reporter change reporter ratio raised past the hit cutoff.
Cyp18a1 scored stable assay Renilla, run 1 = 6507; stable assay firefly, run 1 = 5.01e5.
Knock-down of CG5757 resulted in: stable assay Renilla, run 1 = 9510; stable assay firefly, run 1 = 3.11e5.

Laid out differently: entries from further up.
gene,reagent,miRNA reporter change,"stable assay Renilla, run 1","stable assay firefly, run 1"
CG33255 (retired record) + hpRNA:CR32205,2,,5971,4.65e5
CG17121,1,,6792,2.87e5
